Measurements reported in PubChem BioAssay AID1224827 (NIAID, 2016)

- Aim: 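Identify regulators of the macrophage TNF-alpha response to bacterial LPS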 (follow-up of hits)
- Cell system: RAW264.7 G9 mouse macrophage reporter clone
- Reagent: single siRNA against mouse genes, 100 nM siRNA
- Time to read-out: siRNA for 2 days, then LPS about 16 h
- Conditions: bacterial lipopolysaccharide (LPS), 10 ng/ml, cells fixed after overnight (about 16 h) stimulation
- Measured: 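TNF promoter reporter red fluorescence in nuclei, background subtracted, normalised per plate and to non-targeting control siRNA, as z-scores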
- Direction: TNF reporter z-score, mean and TNF reporter z-score: higher = stronger Tnf promoter reporter signal; gene median z, three same-vendor siRNAs: higher = stronger Tnf reporter signal for the gene
- Active means: 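Active siRNA: replicate-mean z-score of 2 or more, or -2 or less; no calls for control wells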
The deposit covers about 3,800 reagents; below is a random part of them. In the full data, about 2,200 (57%) got an active call. 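Active means a strong reporter change in either direction; calls are per siRNA, not per gene; qiagen siRNAs gave weaker effects.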 Reagents against one gene are numbered here.

| gene symbol | siRNA no. | TNF reporter z-score, mean | gene median z, three same-vendor siRNAs | TNF reporter z-score, repeat 1 | TNF reporter z-score, repeat 2 | call |
| --- | --- | --- | --- | --- | --- | --- |
| Mpzl3 | 1 | -3.33 | -4.09 | -2.6 | -4.06 | active |
| Mpzl3 | 2 | -3.54 | -4.09 | -2.98 | -4.11 | active |
| Mpzl3 | 3 | -6.05 | -4.09 | -6.16 | -5.94 | active |
| Mpzl3 | 4 | 4.61 | 1.24 | 6.98 | 2.24 | active |
| Mpzl3 | 5 | 1.83 | 1.24 | 3.42 | 0.236 | inactive |
| Mpzl3 | 6 | -3.07 | 1.24 | -3.06 | -3.08 | active |
| Pmaip1 | 1 | 3.36 | -0.0597 | 2.54 | 4.17 | active |
| Pmaip1 | 2 | -0.0597 | -0.0597 | -0.638 | 0.519 | inactive |
| Pmaip1 | 3 | -2.84 | -0.0597 | -2.89 | -2.79 | active |
| Pmaip1 | 4 | 3.13 | 1.91 | 5.33 | 0.926 | active |
| Pmaip1 | 5 | 2.62 | 1.91 | 4.87 | 0.374 | active |
| Pmaip1 | 6 | 1.5 | 1.91 | 2.9 | 0.0883 | inactive |
| Atg3 | 1 | 0.118 | -1.04 | 0.619 | -0.384 | inactive |
| Atg3 | 2 | -1.04 | -1.04 | -1.43 | -0.646 | inactive |
| Atg3 | 3 | -2.69 | -1.04 | -1.92 | -3.45 | active |
| Atg3 | 4 | 3.15 | 0.743 | 5 | 1.29 | active |
| Atg3 | 5 | 1.64 | 0.743 | 3.08 | 0.196 | inactive |
| Atg3 | 6 | -2.03 | 0.743 | -1.91 | -2.15 | active |
| Kras | 1 | 4.56 | -0.969 | 1.03 | 8.1 | active |
| Kras | 2 | -0.969 | -0.969 | -1.29 | -0.644 | inactive |
| Kras | 3 | -3.76 | -0.969 | -4.51 | -3.01 | active |
| Kras | 4 | 0.392 | -0.766 | 1.77 | -0.981 | inactive |
| Kras | 5 | -0.216 | -0.766 | 0.715 | -1.15 | inactive |
| Kras | 6 | -1.12 | -0.766 | -0.551 | -1.69 | inactive |
